The values below come from paper doi:10.1101/2020.09.21.305680.

Numbering of substitutions follows the chain as printed. These are yes or no findings as the source states them, for the method shown. Some entries that bind do so weakly or less than the wild type.

Holding throughout (assay): two-hybrid
The target of one test is T1, Sld7 (S. cerevisiae) (UniProt Q08457).
T1 sequence: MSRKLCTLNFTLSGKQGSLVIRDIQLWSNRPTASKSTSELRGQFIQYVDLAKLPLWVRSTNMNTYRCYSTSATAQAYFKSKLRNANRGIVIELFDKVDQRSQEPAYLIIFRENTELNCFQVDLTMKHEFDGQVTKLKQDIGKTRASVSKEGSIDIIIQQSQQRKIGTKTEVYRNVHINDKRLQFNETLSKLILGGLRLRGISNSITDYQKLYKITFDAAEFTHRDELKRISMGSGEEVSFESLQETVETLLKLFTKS

In test [1] the target is T2, Sld3 S459L (S. cerevisiae) (UniProt P53135).
T2 sequence: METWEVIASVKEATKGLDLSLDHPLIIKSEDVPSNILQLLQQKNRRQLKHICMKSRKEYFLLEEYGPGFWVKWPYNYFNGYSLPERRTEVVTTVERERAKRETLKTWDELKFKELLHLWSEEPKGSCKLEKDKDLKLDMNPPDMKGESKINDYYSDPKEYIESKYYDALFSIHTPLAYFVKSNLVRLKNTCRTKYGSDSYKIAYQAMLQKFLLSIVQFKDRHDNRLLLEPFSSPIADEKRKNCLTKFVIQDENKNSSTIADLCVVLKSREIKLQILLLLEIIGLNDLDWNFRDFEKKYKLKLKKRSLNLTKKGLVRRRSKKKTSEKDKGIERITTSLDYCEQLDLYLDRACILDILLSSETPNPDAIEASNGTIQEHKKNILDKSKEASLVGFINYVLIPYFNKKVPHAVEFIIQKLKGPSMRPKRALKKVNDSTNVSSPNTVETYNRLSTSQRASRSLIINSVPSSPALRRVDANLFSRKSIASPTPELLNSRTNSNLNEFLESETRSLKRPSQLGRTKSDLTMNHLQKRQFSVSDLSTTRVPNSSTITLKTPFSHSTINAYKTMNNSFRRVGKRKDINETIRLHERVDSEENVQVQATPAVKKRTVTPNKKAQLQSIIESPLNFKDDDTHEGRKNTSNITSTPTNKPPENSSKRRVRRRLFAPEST

Test [2] deals with T3, Sld3^Esa1(-)-3 (S. cerevisiae) (UniProt P53135).
T3 sequence: T2 sequence with P157T, T193S, V264L, L459S, P623Q

In a further test the target is T4, Cdc45 (S. cerevisiae) (UniProt Q08032).
T4 sequence: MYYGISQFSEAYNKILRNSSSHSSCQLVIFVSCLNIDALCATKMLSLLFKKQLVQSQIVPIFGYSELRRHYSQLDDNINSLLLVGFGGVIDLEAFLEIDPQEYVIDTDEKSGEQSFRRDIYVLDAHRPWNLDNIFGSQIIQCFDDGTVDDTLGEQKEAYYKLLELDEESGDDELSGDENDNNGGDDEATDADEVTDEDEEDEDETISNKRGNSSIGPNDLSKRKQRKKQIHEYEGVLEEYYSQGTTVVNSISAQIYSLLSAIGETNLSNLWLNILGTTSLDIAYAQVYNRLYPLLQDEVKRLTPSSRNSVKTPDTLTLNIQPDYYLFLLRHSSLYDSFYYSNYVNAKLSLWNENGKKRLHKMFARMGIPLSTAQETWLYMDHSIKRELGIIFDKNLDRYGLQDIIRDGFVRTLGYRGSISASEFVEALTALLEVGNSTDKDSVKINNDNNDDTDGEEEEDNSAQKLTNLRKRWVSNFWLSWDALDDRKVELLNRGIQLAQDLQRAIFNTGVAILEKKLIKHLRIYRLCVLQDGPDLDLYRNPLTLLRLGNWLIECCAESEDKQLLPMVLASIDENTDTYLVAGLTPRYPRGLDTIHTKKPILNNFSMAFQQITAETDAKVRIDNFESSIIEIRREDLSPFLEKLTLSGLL

B1: Esa1 (protein, UniProt Q08649 1-445)
chain: MSHDGKEEPGIAKKINSVDDIIIKCQCWVQKNDEERLAEILSINTRKAPPKFYVHYVNYNKRLDEWITTDRINLDKEVLYPKLKATDEDNKKQKKKKATNTSETPQDSLQDGVDGFSRENTDVMDLDNLNVQGIKDENISHEDEIKKLRTSGSMTQNPHEVARVRNLNRIIMGKYEIEPWYFSPYPIELTDEDFIYIDDFTLQYFGSKKQYERYRKKCTLRHPPGNEIYRDDYVSFFEIDGRKQRTWCRNLCLLSKLFLDHKTLYYDVDPFLFYCMTRRDELGHHLVGYFSKEKESADGYNVACILTLPQYQRMGYGKLLIEFSYELSKKENKVGSPEKPLSDLGLLSYRAYWSDTLITLLVEHQKEITIDEISSMTSMTTTDILHTAKTLNILRYYKGQHIIFLNEDILDRYNRLKAKKRRTIDPNRLIWKPPVFTASQLRFAW
With B1, the binding entry with Sld7 (S. cerevisiae) is reported as “binds weakly”; in test [1], “binds”; in test [2], “no binding”; with Cdc45 (S. cerevisiae), “no binding”.
